{"source": "paper PMC4721966", "key": {"[1]": {"system": "Aureochrome 1a full length (PtAu1afull) (Phaeodactylum tricornutum)", "assay": "gel filtration (SEC) complex for SAXS", "conditions": "complex formed under blue light, 10 mM MgCl2, 1.5-fold molar excess DNA; recombinant protein; protein details: N-terminal His6 removed by TEV protease"}, "[2]": {"system": "Aureochrome 1a bZIP-LOV (PtAu1abZIP-LOV) (Phaeodactylum tricornutum)", "assay": "gel filtration (SEC) complex for SAXS", "conditions": "complex formed under blue light, 10 mM MgCl2, 1.5-fold molar excess DNA; recombinant protein; protein details: N-terminal His6 removed by TEV protease"}, "[3]": {"system": "Aureochrome 1a full length (PtAu1afull) (Phaeodactylum tricornutum)", "assay": "EMSA", "conditions": "EMSA: 50 nM DNA in buffer C (20 mM HEPES pH 7.5, 100 mM NaCl, 10 mM MgCl2, 5% glycerol) plus 5% glycerol, 20 min at RT, dark or blue light (450 nm), recombinant protein, protein details: N-terminal His6 removed by TEV protease"}}, "note": "The exact form of at least one protein or probe is not confirmed. For part of these data: A negative result means that nothing was seen under these conditions. For part of these data: A weaker result is weaker than the reference pair of the same experiment."}
{"sequence": "ATAGCGTCTGACGTGGTTCCC / TGGGAACCACGTCAGACGCTA [21-bp dsCYC2 probe with single-nucleotide overhangs]", "values": [{"measurement": "binding result", "setting": "[1]", "value": "binds"}, {"measurement": "binding result", "setting": "[2]", "value": "binds"}]}
{"sequence": "GGAGTATCCAGCTCCGTAGCTGACGTGGCCTCTGG (double strand) [35-bp probe of Takahashi et al. 2007]", "values": [{"measurement": "binding result", "setting": "[3]; dark, 10 mM MgCl2, stable complex at much higher protein concentrations than without Mg, 388 nM DNA", "value": "binds more weakly"}, {"measurement": "binding result", "setting": "[3]; dark, no MgCl2, complex already at 2 nM protein, second band above 250 nM, 388 nM DNA", "value": "binds"}]}
{"sequence": "AGTGGGTCATTGCAAGTAGTCGAT (double strand) [24-bp random DNA lacking target sequence]", "values": [{"measurement": "binding result", "setting": "[3]; blue light, 10 mM MgCl2, weak binding above 5-10 uM protein, label: none (GelRed stain)", "value": "binds more weakly"}, {"measurement": "binding result", "setting": "[3]; dark, 10 mM MgCl2, label: none (GelRed stain)", "value": "no binding"}]}
